A short description of the assay: qHTS Assay for Lipid Storage Modulators in Drosophila S3 Cells.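 On cell number change: cells counted by Cell Tracker Red CMTPX staining in the red channel.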 To be noted: BODIPY lipid droplet fluorescence, 18-24 h; for cell number change: measured here: cell count max response, cells fed with added oleic acid. A digest of the protocol: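 Laser-scanning cytometry quantifies lipid droplet accumulation (500–530 nm total intensity; droplet/cell object ratio) in oleic acid-fed (400 uM added) Drosophila S3 cells treated with a concentration series. 20 uM Triacsin C defined 100% inhibition.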
(In general: qHTS replaces the single test concentration by a dilution series.)

[1] abbreviates: measured here: lipid fluorescence (Fed channel) AC50, cells fed with added oleic acid.
Where [2] appears, read: measured here: cell number channel AC50, cells fed with added oleic acid.

A word on the AC50: it is the concentration at which the activity in the assay is half-maximal.

The list shows a part of the results. These are further read-outs of the screen, such as a control signal, another cell line or another target. No call is given for them. Compounds called inactive in the main read-out are mostly missing here. Potencies come from curve fits of mixed quality, noted in brackets.

In the case of `Cc1ccc(C(=O)O)cc1S(=O)(=O)Nc1ccccc1C(=O)NC1CC1`, the cell number change was -25%. The half-maximal activity concentration (AC50) under setting [1] is 29.1 µM [rising, single point].

Regarding `Cc1ccc(S(=O)(=O)N(C)c2ccc(OCC(=O)OCC(=O)N(CC#N)c3ccccc3)cc2)cc1`, the cell number change was -20.7%. The half-maximal activity concentration (AC50) under setting [1] was 0.731 µM [falling, full curve, poor fit].

Regarding `CCOc1ccc(NC(=O)C2=C(C)C(=O)OC23CCC(C)CC3)cc1` (configuration not stated), the cell number change amounted to 20.8%.

On to `COc1cc(NC(=O)C(C)Oc2ccccc2)ccc1NC(=O)COc1ccccc1` (configuration not stated), for which the cell number change was -11%.

On to `COc1ccccc1NS(=O)(=O)c1ccc(OC)c([N+](=O)[O-])c1`, for which the AC50 under setting [2] is 3.66 µM [falling, single point].

Regarding `CCc1ccc(-c2cc(C)no2)cc1S(=O)(=O)N1CCOc2ccccc21`, the AC50 under setting [1] was 20.6 µM [falling, partial curve].

For `CCOC(=O)c1ccc(NC(=O)C2CCCO2)cc1` (configuration not stated), the cell number change amounted to 53.6%. The AC50 under setting [2] was 29.1 µM [rising, single point].

Take `CCCCn1c(N)c(N(CCOC)C(=O)C(C)N2C(=O)c3ccccc3C2=O)c(=O)[nH]c1=O` (configuration not stated): the cell number change stood at 11.7%. Also, under setting [1], the AC50 was 0.259 µM [falling, full curve, poor fit].

`CN(CC(=O)NCCc1ccc(F)cc1)Cc1cccs1`: the cell number change stood at 14.6%. Besides, under setting [2], the AC50 was 3.26 µM [rising, single point]. Further, under setting [1], the AC50 was 4.11 µM [rising, single point].

On to `Cc1noc(C)c1CSCC(=O)Nc1cc(S(=O)(=O)N2CCCCC2)ccc1OC(C)C`, for which the cell number change was found to be 39.1%. For the same compound, the half-maximal activity concentration (AC50) under setting [2] was 6.51 µM [rising, partial curve, poor fit].

For the compound `COc1ccc(-n2c(CN3CCN(c4ccccc4)CC3)nc3ccc([N+](=O)[O-])cc3c2=O)c(OC)c1`, the cell number change was 28.1%. Also, the concentration at half-maximal activity (AC50) under setting [2] was 0.0651 µM [rising, full curve, poor fit]. Under setting [1], the half-maximal activity concentration (AC50) is 0.13 µM [rising, full curve].

As to `COc1ccccc1N1CCN(C2=NS(=O)(=O)c3ccccc32)CC1`, the concentration at half-maximal activity (AC50) under setting [2] is 0.58 µM [rising, single point].

Take `CCN(CC)c1ccc(C(=O)N/N=C/c2ccc(N3CCOCC3)cc2)cc1`: the cell number change turned out to be 20.9%. The half-maximal activity concentration (AC50) under setting [2] is 5.17 µM [rising, single point]. For the same compound, under setting [1], the AC50 was 5.17 µM [rising, single point].

Consider `COc1ccccc1C(=O)COC(=O)CCN=C1NS(=O)(=O)c2ccccc21`, for which the cell number change turned out to be 16.8%. In addition, the AC50 under setting [1] was 23.1 µM [falling, single point].

In the case of `CCC(CO)NCc1ccc(OCC(O)c2ccccc2)c(OC)c1` (configuration not stated), the cell number change was -29.6%. In addition, the half-maximal activity concentration (AC50) under setting [1] is 6.51 µM [falling, single point].

On to `COc1cc(C2=NOC(C(=O)Nc3ccc(C)cc3)C2)cc(OC)c1OC` (configuration not stated), for which the cell number change is -15.4%. Also, the AC50 under setting [1] is 6.51 µM [falling, full curve].

As to `CCOc1ccccc1N(CC(=O)N/N=C/c1cc(Br)ccc1OC)S(C)(=O)=O`, the cell number change was found to be 21.4%. For the same compound, the AC50 under setting [2] was 2.59 µM [rising, full curve, poor fit]. Besides, the AC50 under setting [1] is 3.66 µM [rising, partial curve].

As to `CCOCCCNC(=O)c1ccccc1SC`, the cell number change is -7.67%. Besides, the half-maximal activity concentration (AC50) under setting [2] is 0.146 µM [falling, full curve, poor fit]. Moreover, under setting [1], the AC50 was 0.13 µM [falling, partial curve].

On to `COc1ccc2[nH]cc(CCNC(=O)C3CC(=O)N(c4ccc(Cl)cc4)C3)c2c1` (configuration not stated), for which the cell number change turned out to be 23.9%.

In the case of `CCOc1ccc(S(=O)(=O)Nc2cccc(C(=O)NCCCN3CCCC3=O)c2)cc1`, the cell number change stood at 3.11%. Besides, under setting [1], the concentration at half-maximal activity (AC50) is 0.461 µM [falling, single point].

For the compound `Cc1[nH]c2c(C)cccc2c1CN1CCC(CO)(Cc2ccccc2)CC1`, the cell number change was -4.56%. Under setting [1], the AC50 was 6.51 µM [falling, single point].

For the compound `Cc1ccc(S(=O)(=O)Nc2cc(-c3nn(C)c(=O)c4ccccc34)ccc2N2CCOCC2)cc1`, the cell number change was -5.22%. Also, the AC50 under setting [2] was 0.206 µM [rising, full curve, poor fit].

For the compound `CCOc1cccc(NC(=O)Cn2nc(-c3ccc4c(c3)OCCO4)ccc2=O)c1`, the cell number change stood at 33.1%. Further, under setting [2], the AC50 was 18.4 µM [rising, single point].

With `O=C(c1ccc(-n2cnnn2)cc1)N1CCOCC1`, the cell number change is -0.165%. Further, under setting [1], the half-maximal activity concentration (AC50) is 29.1 µM [rising, single point].

For `CCOC(=O)CSc1nc2c(sc(=S)n2-c2ccccc2OC)c(=O)n1Cc1ccco1`, the cell number change was determined as 8.12%. For the same compound, the half-maximal activity concentration (AC50) under setting [2] is 0.0366 µM [rising, full curve]. In addition, the concentration at half-maximal activity (AC50) under setting [1] is 0.184 µM [rising, partial curve].

As to `CCCN1C(=O)c2cc(C(=O)NC3CCCC3)ccc2C1O` (configuration not stated), the cell number change is -29%. The AC50 under setting [2] was 0.731 µM [falling, full curve, poor fit]. Moreover, the concentration at half-maximal activity (AC50) under setting [1] was 29.1 µM [falling, single point].

Consider `Clc1ccccc1COc1ccc(/C=N/n2cnnc2)cc1`, for which the cell number change was 36.2%. Besides, under setting [2], the AC50 was 29.1 µM [rising, single point]. Besides, the AC50 under setting [1] was 29.1 µM [rising, single point].

For the compound `CCC(C)(C)NC(=O)C(c1ccncc1)N(C(=O)c1sc(C)nc1C)c1ccc(C)cc1` (configuration not stated), the cell number change was -34.2%. Also, under setting [2], the concentration at half-maximal activity (AC50) is 13 µM [falling, partial curve]. For the same compound, the concentration at half-maximal activity (AC50) under setting [1] was 23.1 µM [falling, single point].

As for `COc1ccc(NS(=O)(=O)c2cccc(NC(=O)C34CCC(CC3)C4)c2)cc1`, the cell number change was 21%. Under setting [2], the AC50 was 6.51 µM [rising, single point].

As for `COc1cccc(C(=O)NNC(=O)C(=O)Nc2ccc(C)c(Cl)c2)c1`, the cell number change was 111%. In addition, the AC50 under setting [2] is 23.1 µM [rising, partial curve].

As to `Cc1ccc(S(=O)(=O)N2CCCCC2)cc1C(=O)NCC1CCCO1` (configuration not stated), under setting [1], the AC50 was 29.1 µM [rising, single point].

As to `CCOc1ccc(N(CC(=O)Nc2c(C)n(C)n(-c3ccccc3)c2=O)S(=O)(=O)c2ccc(F)cc2)cc1`, the cell number change was 6.65%. For the same compound, the half-maximal activity concentration (AC50) under setting [1] is 23.1 µM [falling, partial curve].

`C[C@H]1CN=C(Nc2ccccc2)N1CC1CCCCC1`: the cell number change amounted to 16.2%. Further, the half-maximal activity concentration (AC50) under setting [1] was 8.2 µM [rising, partial curve].

Consider `Nc1ccc(SC(F)(F)F)cc1C(=O)c1ccccc1`, for which the cell number change is -46.1%. Further, under setting [2], the AC50 was 29.1 µM [falling, single point]. For the same compound, the concentration at half-maximal activity (AC50) under setting [1] was 23.1 µM [falling, single point].

Regarding `COc1ccc(-c2csc3nc(C(C)C)oc(=O)c23)cc1OC`, the cell number change turned out to be 8.82%.

Regarding `Oc1[nH]c2ccc(Br)cc2c1N=Nc1nn[nH]n1`, the cell number change was 45.8%. The AC50 under setting [2] is 4.11 µM [rising, partial curve, poor fit]. Under setting [1], the half-maximal activity concentration (AC50) was 2.91 µM [rising, partial curve, poor fit].

Turning to `O=C(c1cc2cc(Br)ccc2o1)N1CCN(c2ccccc2)CC1`, the cell number change worked out at 6.15%. The concentration at half-maximal activity (AC50) under setting [1] is 6.51 µM [rising, single point].

With `Cc1c(C(=O)NC(=S)Nc2ccccc2N2CCCC2)cccc1[N+](=O)[O-]`, the cell number change is 15.7%. In addition, the concentration at half-maximal activity (AC50) under setting [1] is 1.84 µM [rising, full curve].

For the compound `COc1ccc(CNC(NC(=O)c2ccccc2)(C(F)(F)F)C(F)(F)F)cc1`, the cell number change was -14.1%. For the same compound, the AC50 under setting [1] is 32.6 µM [falling, single point].

With `CCCCN(C(=O)c1ccc(-c2ccc([N+](=O)[O-])cc2)o1)c1c(N)n(CC(C)C)c(=O)[nH]c1=O`, the cell number change is -12.1%. Moreover, the AC50 under setting [1] was 0.164 µM [rising, full curve, poor fit].

`CC(C)CC(=O)Nc1ccc(Oc2ccc3c(c2)C(=O)NC3=O)cc1`: the cell number change came out at 63.8%. In addition, under setting [2], the AC50 was 29.1 µM [rising, partial curve, poor fit]. Besides, under setting [1], the AC50 is 29.1 µM [rising, single point].

As to `O=C(c1ccc(F)cc1)N1CCN(c2cnn(-c3ccccc3)c(=O)c2Cl)CC1`, the cell number change is -21.2%. For the same compound, under setting [2], the AC50 was 2.59 µM [falling, full curve, poor fit]. The concentration at half-maximal activity (AC50) under setting [1] is 2.31 µM [falling, partial curve, poor fit].

With `CN(CCC(=O)Nc1ccc(Br)cc1)Cc1ccccc1`, the cell number change came out at 5.71%.

With `CCOC(=O)c1nn(-c2ccc(C)cc2)c(=O)cc1OCC(=O)Nc1cc(C)ccc1OC`, the AC50 under setting [2] is 1.16 µM [rising, full curve].

`COc1ccc2c(c1)O[C@@H](c1ccc3c(c1)OCO3)[C@H](OC(=O)Nc1cc(OC)c(OC)c(OC)c1)C2=O`: the AC50 under setting [1] is 1.84 µM [rising, full curve, poor fit].

Consider `Cc1ccc(-n2nnnc2Sc2nc([N+](=O)[O-])nn2C)cc1C`, for which the cell number change stood at 30.8%.

`C=CCn1c(=NC(=O)C2CC2)sc2cc(NC(C)=O)ccc21`: the AC50 under setting [1] was 0.731 µM [rising, full curve, poor fit].

Take `Cn1nc([N+](=O)[O-])nc1Sc1cccc2cccnc12`: the cell number change is -42.7%. Moreover, the AC50 under setting [2] is 16.4 µM [falling, single point]. Moreover, the AC50 under setting [1] was 23.1 µM [falling, partial curve].

`CCOC1(OCC)N=C(N)C2(C#N)C(c3ccc(NC(C)=O)cc3)C12C#N` (configuration not stated): the cell number change is 5.92%.

Regarding `CN(C)CCNCc1ccccc1OC1CCCC1`, the cell number change was -21.6%. The AC50 under setting [2] was 0.651 µM [falling, full curve, poor fit]. In addition, under setting [1], the AC50 was 0.58 µM [falling, single point].

`CCCCC(=O)Nc1ccc(C)c(S(=O)(=O)N2CCCCCC2)c1`: the cell number change is -2.3%. The AC50 under setting [2] is 3.66 µM [rising, single point]. For the same compound, the AC50 under setting [1] is 6.51 µM [rising, single point].

Regarding `COc1ccc(NS(=O)(=O)c2cc(NC(=O)c3ccncc3)ccc2N2CCOCC2)cc1`, the cell number change amounted to 18.6%.

In the case of `Cc1nn(C)c(Oc2ccc(Cl)cc2)c1C(=O)O`, the cell number change is -33.5%. The concentration at half-maximal activity (AC50) under setting [2] is 3.66 µM [falling, full curve]. Further, the concentration at half-maximal activity (AC50) under setting [1] was 6.51 µM [falling, single point].

Take `Cc1cccc(/C=N/n2c(-c3ccncc3)n[nH]c2=S)c1`: the cell number change is 25.5%.

`CC1=C(C#N)C(NC(=O)c2ccco2)(C(F)(F)F)C(=O)N1` (configuration not stated): the cell number change amounted to 1.36%. For the same compound, under setting [1], the AC50 is 3.66 µM [falling, partial curve].

For the compound `COc1cccc(C(=O)OCc2ccccc2C#N)c1O`, the half-maximal activity concentration (AC50) under setting [2] is 0.13 µM [rising, full curve, poor fit].

The record behind these values is PubChem BioAssay AID2685 (National Center for Advancing Translational Sciences (NCATS), 2010).
